Values from PubChem BioAssay AID493246 (Drosophila RNAi Screening Center, 2011).

Aim: 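Genome-wide search for dsRNAs that reduce cell number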 (primary screen)
System: Drosophila Kc and S2R+ cells
Reagents: long dsRNA against Drosophila genes
Measurement: 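Cell number per well after knock-down, printed as raw plate values; calls were based on per-plate z-scores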
Direction: Kc cell number and S2R+ cell number: higher = more cells remaining
Call rule: 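Counted as a hit if cell number falls by a z-score of at least 3 within its plate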
The deposit covers about 21,000 reagents; shown is an unselected part of those that have a named target and a result. Of all reagents, 429 (2%) got an active call. 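Values are raw and not normalised between plates; calls rest on per-plate z-scores that were not deposited.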 Entries without a mark were called inactive. Reagents against one gene are numbered here. Reagent sequences are not shown. The record does not give: the amount of reagent, the time to read-out.

sbm | Kc cell number, rep 1 = 1.52e6; Kc cell number, rep 2 = 1.51e6; S2R+ cell number, rep 1 = 1.06e6; S2R+ cell number, rep 2 = 1.16e6
SMC1 | Kc cell number, rep 1 = 1.47e6; Kc cell number, rep 2 = 1.46e6; S2R+ cell number, rep 1 = 9.34e5; S2R+ cell number, rep 2 = 1.05e6
CG14645 | Kc cell number, rep 1 = 1.29e6; Kc cell number, rep 2 = 1.32e6; S2R+ cell number, rep 1 = 1.26e6; S2R+ cell number, rep 2 = 1.32e6
Reph | Kc cell number, rep 1 = 1.39e6; Kc cell number, rep 2 = 1.45e6; S2R+ cell number, rep 1 = 1.13e6; S2R+ cell number, rep 2 = 1.13e6
GlcAT-P #1 | Kc cell number, rep 1 = 1.44e6; Kc cell number, rep 2 = 1.53e6; S2R+ cell number, rep 1 = 1.21e6; S2R+ cell number, rep 2 = 1.01e6
GlcAT-P #2 | Kc cell number, rep 1 = 1.49e6; Kc cell number, rep 2 = 1.58e6; S2R+ cell number, rep 1 = 1.09e6; S2R+ cell number, rep 2 = 1.17e6
qin | Kc cell number, rep 1 = 1.27e6; Kc cell number, rep 2 = 1.27e6; S2R+ cell number, rep 1 = 1.14e6; S2R+ cell number, rep 2 = 1.21e6
Mhcl #1 | Kc cell number, rep 1 = 1.51e6; Kc cell number, rep 2 = 1.66e6; S2R+ cell number, rep 1 = 1.10e6; S2R+ cell number, rep 2 = 1.15e6
Mhcl #2 | Kc cell number, rep 1 = 1.32e6; Kc cell number, rep 2 = 1.48e6; S2R+ cell number, rep 1 = 1.22e6; S2R+ cell number, rep 2 = 1.34e6
Mhcl #3 | Kc cell number, rep 1 = 1.20e6; Kc cell number, rep 2 = 1.28e6; S2R+ cell number, rep 1 = 1.23e6; S2R+ cell number, rep 2 = 1.38e6
CG42542 | Kc cell number, rep 1 = 1.76e6; Kc cell number, rep 2 = 1.77e6; S2R+ cell number, rep 1 = 1.23e6; S2R+ cell number, rep 2 = 1.30e6
Cyp313a2 | Kc cell number, rep 1 = 1.55e6; Kc cell number, rep 2 = 1.56e6; S2R+ cell number, rep 1 = 1.19e6; S2R+ cell number, rep 2 = 1.27e6

In a second layout: results already given.
gene,reagent,"Kc cell number, rep 1","Kc cell number, rep 2","S2R+ cell number, rep 1","S2R+ cell number, rep 2"
sbm,1,1.52e6,1.51e6,1.06e6,1.16e6
SMC1,1,1.47e6,1.46e6,9.34e5,1.05e6
CG14645,1,1.29e6,1.32e6,1.26e6,1.32e6
Reph,1,1.39e6,1.45e6,1.13e6,1.13e6

Further reagents follow.
GNBP-like3 | Kc cell number, rep 1 = 1.72e6; Kc cell number, rep 2 = 1.72e6; S2R+ cell number, rep 1 = 1.24e6; S2R+ cell number, rep 2 = 1.51e6
CG4230 | Kc cell number, rep 1 = 1.23e6; Kc cell number, rep 2 = 1.29e6; S2R+ cell number, rep 1 = 5.73e5; S2R+ cell number, rep 2 = 5.89e5
SdhA | Kc cell number, rep 1 = 1.36e6; Kc cell number, rep 2 = 1.43e6; S2R+ cell number, rep 1 = 1.16e6; S2R+ cell number, rep 2 = 1.15e6
CG4752 | Kc cell number, rep 1 = 1.77e6; Kc cell number, rep 2 = 1.78e6; S2R+ cell number, rep 1 = 1.46e6; S2R+ cell number, rep 2 = 1.50e6
CG13991 | Kc cell number, rep 1 = 1.71e6; Kc cell number, rep 2 = 1.78e6; S2R+ cell number, rep 1 = 1.20e6; S2R+ cell number, rep 2 = 1.35e6
Cyp40 | Kc cell number, rep 1 = 1.42e6; Kc cell number, rep 2 = 1.46e6; S2R+ cell number, rep 1 = 1.35e6; S2R+ cell number, rep 2 = 1.30e6
CG14743 | Kc cell number, rep 1 = 1.60e6; Kc cell number, rep 2 = 1.66e6; S2R+ cell number, rep 1 = 1.33e6; S2R+ cell number, rep 2 = 1.51e6
Gr57a | Kc cell number, rep 1 = 1.50e6; Kc cell number, rep 2 = 1.34e6; S2R+ cell number, rep 1 = 9.94e5; S2R+ cell number, rep 2 = 1.28e6
Ir7b | Kc cell number, rep 1 = 1.41e6; Kc cell number, rep 2 = 1.40e6; S2R+ cell number, rep 1 = 1.04e6; S2R+ cell number, rep 2 = 1.13e6
